This is an account of results in publication PMC7060239.

By UniProt entry, the sequences of proteins in these tests, tags left out. Where a name states a change or a piece, a line headed by the entry shows the natural chain unless it says otherwise.
UniProt P13864: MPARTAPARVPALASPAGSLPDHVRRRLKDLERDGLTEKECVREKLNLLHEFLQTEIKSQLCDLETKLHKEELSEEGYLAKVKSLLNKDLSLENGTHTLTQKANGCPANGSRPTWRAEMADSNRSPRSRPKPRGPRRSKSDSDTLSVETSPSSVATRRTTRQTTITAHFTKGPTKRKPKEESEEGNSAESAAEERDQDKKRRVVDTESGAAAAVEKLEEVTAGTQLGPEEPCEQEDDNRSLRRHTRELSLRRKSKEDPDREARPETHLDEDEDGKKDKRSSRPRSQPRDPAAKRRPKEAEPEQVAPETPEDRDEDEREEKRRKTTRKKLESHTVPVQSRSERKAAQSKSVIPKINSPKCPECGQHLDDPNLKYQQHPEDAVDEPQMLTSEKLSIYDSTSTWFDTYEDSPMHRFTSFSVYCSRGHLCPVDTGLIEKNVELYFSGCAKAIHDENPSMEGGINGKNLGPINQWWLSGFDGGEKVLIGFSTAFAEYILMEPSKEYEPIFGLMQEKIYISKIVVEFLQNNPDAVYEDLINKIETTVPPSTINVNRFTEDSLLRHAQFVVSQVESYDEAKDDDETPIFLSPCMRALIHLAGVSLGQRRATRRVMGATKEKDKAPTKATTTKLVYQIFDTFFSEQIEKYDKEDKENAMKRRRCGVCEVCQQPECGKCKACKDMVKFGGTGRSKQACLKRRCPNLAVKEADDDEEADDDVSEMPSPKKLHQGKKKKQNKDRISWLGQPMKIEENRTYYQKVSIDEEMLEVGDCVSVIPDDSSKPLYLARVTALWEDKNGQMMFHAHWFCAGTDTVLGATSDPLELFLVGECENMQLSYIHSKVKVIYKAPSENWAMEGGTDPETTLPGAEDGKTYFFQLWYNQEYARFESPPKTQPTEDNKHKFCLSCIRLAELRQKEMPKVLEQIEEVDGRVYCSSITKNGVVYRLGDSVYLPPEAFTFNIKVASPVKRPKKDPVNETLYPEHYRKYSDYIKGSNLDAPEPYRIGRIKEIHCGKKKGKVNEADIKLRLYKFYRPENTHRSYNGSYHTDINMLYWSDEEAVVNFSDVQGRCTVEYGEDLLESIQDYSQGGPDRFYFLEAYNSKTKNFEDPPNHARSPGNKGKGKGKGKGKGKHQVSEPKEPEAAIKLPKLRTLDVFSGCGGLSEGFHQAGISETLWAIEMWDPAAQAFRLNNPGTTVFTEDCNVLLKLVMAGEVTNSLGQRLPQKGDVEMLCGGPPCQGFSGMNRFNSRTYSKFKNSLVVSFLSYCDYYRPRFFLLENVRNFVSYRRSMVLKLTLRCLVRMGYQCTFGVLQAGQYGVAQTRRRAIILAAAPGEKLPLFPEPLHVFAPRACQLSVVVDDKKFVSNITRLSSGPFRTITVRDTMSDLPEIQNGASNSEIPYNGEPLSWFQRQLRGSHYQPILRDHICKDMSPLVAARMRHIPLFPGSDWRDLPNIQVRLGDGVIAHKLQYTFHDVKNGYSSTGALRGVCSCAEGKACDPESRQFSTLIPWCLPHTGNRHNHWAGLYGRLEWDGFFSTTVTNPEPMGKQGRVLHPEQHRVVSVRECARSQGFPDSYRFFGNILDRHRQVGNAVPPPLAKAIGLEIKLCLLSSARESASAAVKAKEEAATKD
UniProt Q15004: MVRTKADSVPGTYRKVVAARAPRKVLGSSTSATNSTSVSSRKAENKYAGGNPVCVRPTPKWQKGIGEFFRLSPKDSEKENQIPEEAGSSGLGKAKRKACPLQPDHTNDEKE

Substitutions are numbered along the chain they refer to. No constants are given. Whether binding was seen depends on the method and setting. For some of these results: In cells and extracts the contact can be indirect.

The target in assay [1] is T1, mPAF15 K15R/K24R (Paf15 KRKR mESCs) (mouse (endogenous in J1 mESCs)) (UniProt Q9CQX4).
T1 sequence: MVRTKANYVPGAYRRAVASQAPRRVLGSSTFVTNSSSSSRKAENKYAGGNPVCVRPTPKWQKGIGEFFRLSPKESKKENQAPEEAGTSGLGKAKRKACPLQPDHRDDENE
Nature of the assay: co-IP; endogenous mPAF15 precipitated with anti-mPAF15 antibody (sc-390515) and protein G beads from nuclear extracts of WT and KRKR mESCs; immunoblot. On the technique in general: A western blot detects proteins with antibodies after separation by electrophoresis.

The target of assay [2] is T2, PHD finger of human UHRF1 (residues 299–366) (human) (UniProt Q96T88).
T2 sequence: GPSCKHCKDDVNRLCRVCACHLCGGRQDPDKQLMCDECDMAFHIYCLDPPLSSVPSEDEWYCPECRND
Nature of the assay: ITC; hPHD and PAF15_(2-11) or H3 peptides; VP-ITC; 10 mM HEPES-NaOH (pH 7.5), 150 mM NaCl, 0.25 mM TCEP; one-site model; both purified. A general note: In ITC the heat of successive injections is recorded.

The target in assay [3] is T3, hPHD-D334A/D337A (human) (UniProt Q96T88).
T3 sequence: T2 sequence with D36A, D39A
The description is as above.

On to “endogenous murine DNMT1 (from UniProt P13864 1-1620) (enzyme)”, for which the binding entry in assay [1] is on record as “no binding”. With “hPAF15_(2-11)-T4D peptide (from UniProt Q15004 2-11)”, in assay [2], the binding entry is “no binding”. Regarding “human PAF15 (residues 2–11) peptide (from UniProt Q15004 2-11)”, in assay [3], the binding entry is “no binding”. As for “hPAF15_(2-11)-R3A peptide (from UniProt Q15004 2-11)”, the binding entry in assay [2] was “no binding”.
